At least one compound was matched to its structure with a doubt left.
Columns and labels:
[1] = system: patients with severe coronary artery disease; experiment: Angina symptoms and clinical outcome of treated patients (case reports); assay type: in vivo, human; settings: Patient five; pravastatin 10 mg per day period, 13 months
[2] = Serum lipids and laboratory values of treated patients (case reports); settings: Patient four; pravastatin 40 mg per day replaced lovastatin at the same dosage for four months

Which results are given for `CC[C@H](C)C(=O)O[C@H]1C[C@H](O)C=C2C=C[C@H](C)[C@H](CC[C@@H](O)C[C@@H](O)CC(=O)O)[C@H]21` [pravastatin]?
angina [1]: one instance of mild angina; serum lipids [2]: little discernible change in serum lipids
